# In PubChem BioAssay AID1508600 (Functional Genomics Laboratory (NCATS/FGL), 2020):
# About 3,700 (7%) of roughly 53,000 sequences were called active.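 How the source made its calls: active means gene knockdowns whose robust z-score for IL-1 alpha signal is at least 2 or at most -2, so actives lie on both sides; inactive means the rest.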 The list shows a part of the results.
# Assay: Components of the Cytosolic LPS Sensing Pathway: Gene Identification via Genome-wide siRNA Screen
# Details: RAW264.7 macrophages, IL-1a HTRF, actives lie on both sides, screened at 100 nM (by protocol), cells primed 5 h with Pam3CSK4 first
# From the text: Non-canonical inflammasome activation by cytosolic LPS is a critical component of the host response to Gram-negative bacterial infection, however we lack a comprehensive understanding of the cellular processes that control this pathway. Here we describe a genome-wide siRNA screen to identify genes regulating the mouse macrophage IL-1 alpha response to cytosolic LPS.
# RAW264.7 cells were maintained in complete DMEM media, comprising DMEM with 4.5 g/L glucose, 10% FBS (Gemini Bio-Products, West Sacramento, CA), 2 mM Glutamine (Lonza) and 20 mM HEPES (Lonza), hereafter complete DMEM.
# The RNAi screen was conducted in 384-well format using the Ambion Silencer Mouse Genome siRNA Library (#4391425), which consists of three unique, nonoverlapping, nonpooled siRNAs for each of 17,000 gene targets. siRNA reagents ([…]) were stamped into 384-well white flat-bottom microplates (Corning, 3570) using a Velocity11 VPrep liquid handling system (Agilent) integrated into a BioCel robotic platform (Agilent) in columns 1-22, leaving columns 23-24 empty for negative (Ambion, Negative control #1) and positive (mouse Casp4) controls, respectively. The median value of each plate's negative control column was used to normalize sample wells, and the positive control was used to assess transfection efficiency and assay performance.
# Lipofectamine RNAiMAX Transfection Reagent ([…]; Invitrogen) was added in […] serum-free, antibiotic-free media to plate wells using a Thermo Scientific Matrix WellMate and Microplate Stacker. Plates were incubated for 45 min at room temperature to allow for the sufficient formation of siRNA-lipid complexes. Cells were seeded at a density of 1x10^4 cells per well in 20 microL media containing 20% (vol/vol) FBS without antibiotics. The final concentration of siRNA in each well was 100 nM. Cells were cultured for 48h at 37 degrees C in 5% CO2 before addition of […] of TLR ligand Pam3CSK4 for 5 hours. The medium was then removed, replaced with […] growth media and cell were transfected with […] of LipidA and TransIT-TKO (Mirus) for 24 hour. At the end of the LipidA treatment, […] of supernatant was transferred to a 384 Greiner Bio-one non-binding low volume plate and […] of IL-1a HTRF reagent (Cisbio, 62MIL1APEH) was added and incubated at room temperature overnight. The plates were read on an EnVision plate reader (PerkinElmer). Cell viability was measured by adding 20ul Cell Titer Glo to the original plate and running a luminescence read on the EnVision. The quantified IL-1a signal for each siRNA gene-targeted well was divided by the median of the negative control wells and multiplied by 100 to achieve a negative control normalized value for each well/siRNA. This normalized value was then used to generate a robust z-score by first taking the log of each value and then by subtracting the median and dividing by the […].
row,Sequence,z-score
1,GCAAACACUUGAAUGUUCATT against Cacnb4,inactive: 0.667
2,CCCUAGAUGGCCGAAAUAUTT against Dazap1,inactive: -1.47
3,CGGAACUAUGAAAAGAAAUTT against Stk3,inactive: 0.674
4,GGACAUUCGUGGUUCCAUCTT against Abcb8,inactive: 0.166
5,GCAGACAGCACUAUGUCUUTT against Tceal5,inactive: 0.0945
6,GGCAAAAUUUGUGUGCAAATT against Mrc1,inactive: 1.02
7,GGGAAUCUUGGCAUGAUGGTT against Olfr1030,inactive: -0.325
8,GCAGAAGUCUAUCACCUUUTT against Olfr1441,inactive: -0.155
9,GGUCCAAAAGUUGUUUCAATT against Oga,active: 3.12
10,GGGCAAACUCUAUAAUCAGTT against BC023105,inactive: 0.337
11,GGUCUCAGUUUCUCAGAAUTT against Siglece,inactive: -1.62
12,CCACAAAUAUGGUAGGUUCTT against Tmem170,inactive: -0.867
13,GGAAAUGAAGGCAGCAAUGTT against Olfr1311,inactive: -0.376
14,GCCUUGUCUAUAGGACUGUTT against Grm6,inactive: -0.00801
15,GGCAGAAAGUAAAUCCGUGTT against Exoc3l4,inactive: -1.22
16,GGGAUGGACUUAUACCUGUTT against Vmn1r220,inactive: 0.328
17,GCAACAAGUGUUGGACUCATT against Tob2,active: -2.04
18,GGUAGAUGAUAAUUUCACUTT against 4930595M18Rik,inactive: -0.894
19,GCGAUGGACUCAAAAAACUTT against Ehd3,inactive: 0.0497
20,GCUAGAUUACUCACAUCUATT against Ivl,inactive: 1.31
21,GCUGGAUUAUUUGAGAGUCTT against Trim62,active: 2.17
22,GCAUUAUGUCCCAACAUAATT against Olfr935,inactive: 0.0875

row,Sequence,z-score
1,CCAUCUCGAUUUGUAUAAUTT against Tmigd1,inactive: -1.16
2,GCUCAAUAAAGGUGUGGAATT against Cox6a2,inactive: -0.535
3,GCUGACCUAUUAUCAGAAGTT against Sclt1,inactive: 1.4
4,CGUUGCUGACUGCUAUGAATT against Tmprss13,inactive: -1.22
5,GCAUAAUUCAGUUGAUUACTT against Fbxw15,inactive: 1.36
6,GGACCAUUGCCAGAAACUATT against Ptpn20,inactive: -0.0169
7,GGAAUCGGACUACCUCAUCTT against Lrp11,inactive: 0.218
8,GCUUAUGAACUAACAUAGATT against Ccr2,inactive: -0.103
9,CGGAAUGAUCUAGAAAAUATT against Arhgap29,inactive: 0.954
10,GGUUUCCAGAAGAAACUCCTT against Vmn1r66,inactive: 0.518
11,GCAACCUGUAUGCUUUUGUTT against Fbxw17,inactive: 0.447
12,CCGUCCACACUUUUUGCUGTT against Isyna1,inactive: -0.101
13,GGCAUGACAGCGGUUAUCUTT against Slc25a16,inactive: 0.233
14,GCGCACAGUACAUUCAUUUTT against Drd5,active: 3.62
15,GGGACUUUGAGAAGCAGAGTT against Gja10,inactive: 0.352
16,UAACAGACCAGUAAAGGCCTT against Klra21,inactive: 0.322
17,GCUUGAGAUACCAGAACCATT against Zfp449,inactive: -0.127
18,GCUGUAAACCGAAUCAAAGTT against Khdc4,inactive: 0.0586
19,GGCUGAGAACUACUAUUCUTT against Mesp2,inactive: 1.36
20,AAGAGGCUUCCGACAAGUGTT against Mt2,inactive: 0.23
21,GCUACCUUUUAGUGUCCAUTT against Olfr1462,inactive: 1.27
22,GGAGUCAUUGACGGAGGAUTT against Dapk3,inactive: 0.823

# 30 successive entries from above:
row,Sequence,z-score
8,GCAGAAGUCUAUCACCUUUTT against Olfr1441,inactive: -0.155
9,GGUCCAAAAGUUGUUUCAATT against Oga,active: 3.12
10,GGGCAAACUCUAUAAUCAGTT against BC023105,inactive: 0.337
11,GGUCUCAGUUUCUCAGAAUTT against Siglece,inactive: -1.62
12,CCACAAAUAUGGUAGGUUCTT against Tmem170,inactive: -0.867
13,GGAAAUGAAGGCAGCAAUGTT against Olfr1311,inactive: -0.376
14,GCCUUGUCUAUAGGACUGUTT against Grm6,inactive: -0.00801
15,GGCAGAAAGUAAAUCCGUGTT against Exoc3l4,inactive: -1.22
16,GGGAUGGACUUAUACCUGUTT against Vmn1r220,inactive: 0.328
17,GCAACAAGUGUUGGACUCATT against Tob2,active: -2.04
18,GGUAGAUGAUAAUUUCACUTT against 4930595M18Rik,inactive: -0.894
19,GCGAUGGACUCAAAAAACUTT against Ehd3,inactive: 0.0497
20,GCUAGAUUACUCACAUCUATT against Ivl,inactive: 1.31
21,GCUGGAUUAUUUGAGAGUCTT against Trim62,active: 2.17
22,GCAUUAUGUCCCAACAUAATT against Olfr935,inactive: 0.0875
1,CCAUCUCGAUUUGUAUAAUTT against Tmigd1,inactive: -1.16
2,GCUCAAUAAAGGUGUGGAATT against Cox6a2,inactive: -0.535
3,GCUGACCUAUUAUCAGAAGTT against Sclt1,inactive: 1.4
4,CGUUGCUGACUGCUAUGAATT against Tmprss13,inactive: -1.22
5,GCAUAAUUCAGUUGAUUACTT against Fbxw15,inactive: 1.36
6,GGACCAUUGCCAGAAACUATT against Ptpn20,inactive: -0.0169
7,GGAAUCGGACUACCUCAUCTT against Lrp11,inactive: 0.218
8,GCUUAUGAACUAACAUAGATT against Ccr2,inactive: -0.103
9,CGGAAUGAUCUAGAAAAUATT against Arhgap29,inactive: 0.954
10,GGUUUCCAGAAGAAACUCCTT against Vmn1r66,inactive: 0.518
11,GCAACCUGUAUGCUUUUGUTT against Fbxw17,inactive: 0.447
12,CCGUCCACACUUUUUGCUGTT against Isyna1,inactive: -0.101
13,GGCAUGACAGCGGUUAUCUTT against Slc25a16,inactive: 0.233
14,GCGCACAGUACAUUCAUUUTT against Drd5,active: 3.62
15,GGGACUUUGAGAAGCAGAGTT against Gja10,inactive: 0.352

# Continued:

row,Sequence,z-score
1,GGCGAGCCAUGUUUGAUGATT against Hs1bp3,inactive: 0.25
2,CCAAUUUAUGCCUGAAACUTT against Rhof,inactive: -1.22
3,GGAGUCAGUGCACAUAAUGTT against Pan2,inactive: 0.431
4,GGCGAGAGGAAGAAAGACUTT against Mlph,inactive: 0.87
5,GGCUUUUCACAAAACUGUUTT against Zfp120,inactive: 1.07
6,GGAUGAAGAACCACUCAAATT against Ankzf1,inactive: -1.06
7,GGCUAAAAAAAAAUGGUAGTT against Thra,inactive: -0.79
8,GGAAUACACUCAGAACGCATT against A730008H23Rik,inactive: -1.12
9,GGCUGUGAUACGACUAAAGTT against Fscn3,inactive: 1.55
10,GGAAGGAAGAAAGGGUUCUTT against Olfr1160,inactive: -0.934
11,GCUACAUGAUGUUGUGCAGTT against Sec22a,inactive: 0.302
12,GGACUUUUGAUAGAUGCUATT against Kctd12b,inactive: 1.64
13,GGCUCAUGUACUGCUACAUTT against Ntsr2,inactive: -1.25
14,GCUCACUCUUUCCAACUAUTT against Ubox5,inactive: 0.465
15,GCGACUUUAGCUAAACAUGTT against Kcns2,inactive: 1.79
16,GGAUUGUUAGCAAAGAAAGTT against Aco1,inactive: -0.0776
17,GACCACACUCAUCCAGGCUTT against Gtpbp6,inactive: 0.817
18,GGUGGUUAUUUAUUGGUGATT against Sp6,inactive: -0.272
19,GGAAAUGACCUUGGUGUGUTT against Olfr644,inactive: -0.696
20,GGAGACUCCUUACGGCAAATT against Bnip1,inactive: 0.227
21,GCAACAUUCCUACAAUUAATT against Gsta4,inactive: 0.457
22,GGUUCUUCCUCAAAUUCUUTT against Ebf4,inactive: -0.0406

row,Sequence,z-score
1,GCUACCAUUUGAUCAGUUUTT against Entpd1,inactive: 0.665
2,GGCCUUACUCUUAAGUUCUTT against Brf1,active: 3.7
3,GGUUCAUACCUGUCUUAUUTT against Slc13a4,inactive: -0.508
4,GGGUAGUUUUGACUUUGUUTT against Schip1,inactive: 0.472
5,GGGAAGCUCAUUGAAGCAGTT against Snrpd3,inactive: 0.431
6,GGCAGCUUUGGAACAACUATT against Zc3h14,inactive: -0.477
7,GGCUGUACUUCUGUCCCAUTT against Hus1b,inactive: -1.47
8,GCUGAUACCGUCAUGAAUGTT against Gorasp2,inactive: -1.58
9,GGCAGAAAAUUUUAACCAATT against Marchf7,inactive: -1.09
10,GCUAGUGUGAUACCAUUUATT against Nab1,inactive: 1.63
11,GCUAGAAGUCAUUUUGAAATT against Mme,inactive: 0.0312
12,GGCGCAGGGAAUAAUCUACTT against Ccdc121,inactive: -0.302
13,CCCUCAUUGUGGUUACCAUTT against Olfr1428,inactive: -0.203
14,CCUAGUAGCUCAGACACCGTT against Evx1,inactive: -0.869
15,GGAAUUCACAUUUGACUGUTT against Irx3os,inactive: 0.31
16,GGACUAAGCAAUCUCUUUUTT against Gspt2,inactive: 0.81
17,GGUCUGCUAUGAAAUUAUGTT against Tmem14c,inactive: -0.537
18,GGAUCUCCUAAUAUUUAUCTT against Plekha1,inactive: -0.703
19,GGUGGAUGAAGAGUAUAAGTT against Phka2,inactive: 0.338
20,GGAGGAACUCGAAUCUCAGTT against Adamts19,inactive: -0.561
21,GCACAUCAUUGCUACAGAGTT against Mars1,inactive: -1.17
22,CCUUAAAACUUCAGGGCUCTT against 1700055D18Rik,inactive: -0.287

row,Sequence,z-score
1,GCUUGUCCACAUUGCCUUCTT against Olfr33,inactive: 0.716
2,CCACCAGUUAUCCGAAUCATT against 4932414N04Rik,inactive: 1.36
3,GGAGUUCAGGAAAAUUCUUTT against Fsd1l,inactive: 0.0551
4,GGAGCUUCAUCUUUCAAGATT against Uqcrc2,inactive: -0.0657
5,GGCUCAGAAAAUUGAUCGATT against Cyth2,inactive: -1.05
6,ACUAUCUGUACAACGUGCUTT against Kcnq5,inactive: -0.166
7,CGAAAUGAAAACUUCCUGGTT against Mab21l1,inactive: 0.989
8,GGUGCAAGAUAGUACGAUGTT against Gle1,inactive: -0.649
9,GGUGGAUAUAAUAAUUGACTT against Tgfbr3,inactive: 1.06
10,GGGUUGUUUGCUGGUUUGUTT against Tmbim4,inactive: 0.885
11,CCUAUGGUAGAAAAAUACUTT against Fundc1,inactive: -0.252
12,GCAUUAGAAGAACUACUGATT against Gdpd2,inactive: -0.0764
13,GGACUCUUUCGCUGCAUGATT against Sucla2,inactive: -1.4
14,GCCCUAGUCUUCUACAGCUTT against Gpr18,inactive: -0.982
15,GGAGAUGUUGUUUGCUACUTT against Tango2,inactive: 0.619
16,CCUAGACUUGAACAAACACTT against Lsm12,active: -2.11
17,GGUGACUGGAAAAGAGGCUTT against Spink1,inactive: -0.073
18,GGUUAUCCUUCCCAGAAUUTT against 1110059E24Rik,inactive: 0.776
